Entries after “also recorded” stand apart in the source; their conditions may differ. At least one compound was matched to its structure with a doubt left.
Assays:
SKH-1 mice [1] = experiment: Experimental psoriasis induced by TPA; type: in vivo
SKH-1 mice [2] = experiment: Experimental atopic dermatitis induced by TNCB; type: in vivo
Protocol: Also, on certain specific days prior to sacrificing them, the mice were assessed by a veterinarian who analyzed the skin lesions, qualifying them in function of: • Erythema: redness of the skin conditioned by inflammation due to the excess of blood irrigation by the dilation of blood vessels. • Excoriation: or irritation of the skin with flaky aspect, increase in the descaling of the skin which could result in hyperkeratosis. • The depth of the lesion that could reach the dermis producing soars or ulcers. Each variable was evaluated on a scale of 0-4, 0, for none; 1, for mild; 2, for moderate; 3, marked; and 4, very marked. The addition of the 3 values of each mouse indicated the degree of inflammation. […] Furthermore, the continuous administration of TNCB ointment increased the production of T-lymphocytes, mastocytes and IgE in the serum, as it occurs among human patients with atopic dermatitis. To produce atopic dermatitis lesions, the protocol described by Matsumoto was used, applying 100 μL of a solution of 1% TNCB in acetone [3 applications of 33 μL (with the aid of a dispenser of an automatic micropipette) to prevent the volume from spreading and to maintain the lesion area more localized] on the back of the SKH-1 mice. In contrast to the protocol proposed by Matsumoto, where the treatment with TNCB lasted 32 days following a prior testing period with TNCB, a protocol consisting of one test with TNCB and a week later 4 doses followed by TNCB every 2 days was developed. […] As a standard treatment, the following was used Dexamethasone (from Sigma Solution 25 mM in acetone). […] Nonetheless, the objective evaluation of these characteristics is complex, and the measuring of the loss of transepidermal water (PTEA or TEWL) assessed through the Tewameter TM 210 system (CK electronics, Germany) is considered an indicator of the functions of cutaneous “barriers” (g/h/cm2). […] TEWL readings were performed continuously until the metrics were stabilized, which can produce between 30-60 seconds of readings.

For `C[C@@H]1C[C@H]2[C@@H]3CCC4=CC(=O)C=C[C@]4(C)[C@@]3(F)[C@@H](O)C[C@]2(C)[C@@]1(O)C(=O)CO` [dexamethasone], the “increase of skinfold throughout the procedure” value (SKH-1 mice [1]; FIG. 23, 6 consecutive days, treatment 30 min prior to 2 nmol TPA) was “prevented the development of psoriasis”, the “increase in the skinfold 24 hours after the first administration of TPA” value (SKH-1 mice [1]; FIG. 24, treatment 30 min prior to 2 nmol TPA) was “reduced significantly the increase of the skinfold” and the “histological analysis of the lesions” value (SKH-1 mice [1]; FIG. 28, hematoxylin-eosin, TPA daily over 7 days) was “very thin epidermis without papillomatosis or hyperkeratosis”. The “increase in the skinfold 24 hours after the first administration of TNCB” value (SKH-1 mice [2]; FIG. 19, 10 μmoles polyphenols, 0.5 μmoles dexamethasone 24 h before 1% TNCB) was “decreased their inflammatory effect due to the TNCB agent; also recorded: did not produce any beneficial effect”, the “transepidermal water loss (TEWL)” value (SKH-1 mice [2]; FIG. 20, TNCB model, short term, versus basal values) was “significant statistical increase of the hydration of the epidermis in relation to the basal values” and the “index of lesions (macroscopic assessment)” value (SKH-1 mice [2]; TNCB model, up to 4 applications of TNCB) was “did not produce any beneficial effect”.

Source: patent publication US20130136778A1, “PTEROSTILBENE (PTER) FOR USE IN THE PREVENTION AND/OR TREATMENT OF SKIN DISEASES, DAMAGES OR INJURIES” (GREEN MOLECULAR, S.L., priority 2009, published 2013)
